Experimental data reported in the supplement of paper PMC7024190.
Some of the results follow. Single values are uncertain here, since repeats match poorly.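 The cells were human embryonic kidney cells carrying a Renilla luciferase gene, driven by the HSV-TK promoter, on a plasmid put in briefly by transfection. This is the first-round screen of about ten thousand compounds, looking for ones that raise reporter output.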

Test system: HEK 293FT
Assay: log relative Renilla luciferase luminescence (reporter expression vs reference, reference not stated) (log (base not stated)); higher = higher recombinant reporter expression
Details: 10 µM; time after transfection 48 h
Protocol: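 HEK 293FT cells transiently transfected with pRL-TK (Renilla luciferase) were treated with compounds at 10 uM and luminescence was read about 42 h later. Values are log relative Renilla luminescence (log base and reference not stated). Single-pass screen; 2080 natural products library.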

In order of rising log:
1. C=C(C)[C@@H]1[C@H]2OC(=O)[C@@H]1[C@]1(O)[C@H]3O[C@H]3[C@]3(O)CO[C@H]2[C@]13C [Corianin]  -0.795
2. C=C[C@]12CN(C)[C@@H]3[C@H]4CO[C@H](C[C@H]41)[C@]1(C(=O)Nc4ccccc41)[C@@H]32 [Gelsemine]  -0.744
3. CC(=O)O[C@H]1C(=O)[C@@]2(C)[C@H]([C@H](OC(=O)c3ccccc3)[C@]3(O)C[C@H](O)C(C)=C1C3(C)C)[C@]1(OC(C)=O)CO[C@@H]1C[C@@H]2O [Baccatin III]  -0.505
4. CC1(C)CCC[C@]2(C)[C@@H]1C[C@H](O)[C@@]13C[C@@H](CC[C@@H]21)[C@@](O)(COC(=O)Cc1ccccc1)C3 [Sculponeatin O]  -0.413
5. COc1ccc2c(c1)[nH]c1c(C)nccc12 [Harmine]  -0.293
6. COc1cc(O)cc(/C=C/c2ccc(O)cc2)c1 [Pinostilbene]  -0.267
7. C/C=C1/CN2[C@@H]3C[C@@]45c6ccccc6N(COC)[C@]4(O3)[C@@H]2CC1C5C(=O)OC (stereo not given in full) [N1-methoxymethyl picrinine]  -0.227
8. COC(=O)C1=CO[C@@H](C)[C@@H]2CN3CC[C@@]4(C(=O)Nc5cc(OC)ccc54)[C@@H]3C[C@H]12 [Caboxine A]  -0.195
9. C/C=C1/CN2[C@@H]3C[C@@]45c6ccccc6N[C@]4(O3)[C@@H]2C[C@@H]1[C@H]5C(=O)OC [Picrinine]  -0.186
10. C/C=C1/CN2[C@@H]3C[C@@]45c6ccccc6N[C@]4(O3)[C@@H]2C[C@@H]1[C@@]5(C=O)C(=O)OC [Picralinal]  -0.152
11. O=C1C=CC[C@@H]2[C@H]3CCC[N@+]4([O-])CCC[C@@H](CN12)[C@@H]34 [Sophocarpidine]  -0.125
12. O=C1CCC[C@@H]2[C@H]3CCCN4CCC[C@H](CN12)[C@@H]34 [Sophoridine]  -0.108
13. CC=C1CN2C3CC1C(CO)(C(=O)OC)C2Cc1c3[nH]c2ccccc12 (stereo not given) [(Z)-Akuammidine]  -0.0767
14. CC1(C)C(=O)C=C[C@@]2(C)C1=C(O)C(=O)[C@]1(C)[C@@H]2[C@@H](O)C[C@@]2(C)[C@H](c3ccoc3)C[C@H]3O[C@]321 [11beta-Hydroxycedrelone]  -0.0758
15. COC1=CC23CCN(C)C(Cc4ccc(OC)c(O)c42)C3=CC1=O (stereo not given) [Sinoacutine]  -0.0636
16. CC1(C)O[C@@H]1COc1c2occc2cc2ccc(=O)oc12 [Heraclenin]  -0.0633
17. COc1ccc2c(c1OC)CC1c3c(cc4c(c3-2)OCO4)CCN1C (stereo not given) [Crebanine]  -0.0581
18. O=c1ccc2cc3ccoc3c(O)c2o1 [Xanthotoxol]  -0.0512
19. CC(C)=CCOc1c2occc2cc2ccc(=O)oc12 [Imperatorin]  -0.0495
20. C=C[C@@H](O)C#CC#C[C@@H](O)/C=C\CCCCCCC [Falcarindiol]  -0.0445
21. CC1(C)CCC[C@@]2(C)C1=C(O)C(=O)c1c(O)c3c(c(O)c12)O[C@@H](CO)C3 [Villosin C]  -0.0428
22. CC(C)[C@@H](C)/C=C/[C@@H](C)[C@H]1CC[C@@H]2[C@]1(C)CC[C@H]1[C@]23C=C[C@]2(C[C@@H](O)CC[C@]12C)OO3 [Ergosterol peroxide]  -0.0411
23. COc1cccc2c1C[C@@H]1c3c(cc4c(c3-2)OCO4)CCN1C [Stephanine]  -0.0264
24. COc1cc2ccc(=O)oc2c2ccoc12 [Sphondin]  0.00461
25. C=C[C@]12CN(C)[C@@H]3[C@H]4CO[C@H](C[C@H]41)[C@]1(C(=O)N(OC)c4ccccc41)[C@@H]32 [Gelsevirine]  0.0156
26. COC(=O)C1=CO[C@@H](C)[C@@H]2CN3CC[C@@]4(C(=O)Nc5cc(OC)ccc54)[C@H]3C[C@H]12 [Vineridine]  0.0164
27. Oc1cc(O)cc(/C=C/c2ccc(O)cc2O)c1 [Oxyresveratrol]  0.0292
28. CC(=O)O[C@@H]1[C@H]2[C@H]3C[C@H]4C5=Nc6ccccc6[C@]51C[C@@H]2N4[C@H](C)C3C=O (stereo not given in full) [Perakine]  0.0378
29. CC(=O)OC12COC1CC(O)C1(C)C(=O)C(O)C3=C(C)C(O)CC(O)(C(OC(=O)c4ccccc4)C21)C3(C)C (stereo not given) [10-Deacetylbaccatin III]  0.0468
30. COC(=O)N1c2ccccc2[C@]23CC(=O)C[C@@]4(CCCN(C=O)[C@@H]42)CC[C@]13C(=O)OC [11,12-De(methylenedioxy)danuphylline]  0.0634
31. C=C(C)[C@H]1[C@H]2OC(=O)[C@@H]1[C@@]1(O)[C@H]3O[C@H]3[C@]3(CO3)[C@]1(C)[C@@H]2O [Tutin]  0.0647
32. C=CC(C)(C)c1[nH]c2c(CC=C(C)C)cc(CC=C(C)C)cc2c1C[C@@H]1NC(=O)[C@H](C)NC1=O [Echinulin]  0.0732
33. C=C1C/C(=C/C)C(=O)O[C@@H]2CCN3CC=C(COC(=O)[C@]1(C)O)[C@H]23 [Seneciphylline]  0.0949
34. C/C(=C\C=C\[C@@]1(C)OC(=O)[C@]23CC=C(C(=O)O)CC[C@]2(O)[C@H]1CC3)C(=O)O [Demethoxydeacetoxypseudolaric acid B]  0.142
35. C=C1C/C(=C/C)C(=O)O[C@@H]2CC[N+]3([O-])CC=C(COC(=O)[C@]1(C)O)[C@H]23 (stereo not given in full) [Seneciphylline N-oxide]  0.145
36. CC(C)(O)C1C2OC(=O)C1C1(O)C3OC3C3(CO3)C1(C)C2O (stereo not given) [Isohyenanchin]  0.148
37. N#C/C(=C\CO[C@@H]1O[C@H](CO)[C@@H](O)[C@H](O)[C@H]1O)CO [Sarmentosin]  0.15
38. CC(C)(O)[C@@H]1[C@@H]2C[C@]3(C)[C@@](O)([C@H]4O[C@H]4[C@]34CO4)[C@H]1C(=O)O2 [Coriatin]  0.176
39. C=C[C@@H](O)C#CC#C[C@@H](O)/C=C\CCCCCCCCOC(C)=O  0.181
40. C=C(C)C1C2OC(=O)C1C1(O)C3OC3C3(CO3)C1(C)C2OC(C)=O (stereo not given) [2-O-Acetyltutin]  0.209
